Measured values as given in patent publication US7795222B2 (Santen Pharmaceutical Co., Ltd., priority 2001, dated 2010).
Where a sequence shows no end group, the ends are not given.

Assay: general procedure: Boc solid-phase peptide synthesis; 4-(oxymethyl)phenylace[...] resin (truncated in excerpt)
Details: whole synthesis, 220 nm, TFA salt

Sequence: GSSSRRAP (Human)
- final HPLC purity: 98.6%
